Tests used:
[1] = general procedure: Boc solid-phase peptide synthesis; Oxime resin (substitution level 0.96 mmol/g, or Novabiochem 0.62 mmol/g); HBTU or TBTU; details: for isolated yield: whole synthesis, overall; for conjugation yield: conjugation step
peptide synthesis = details: TFA salt
[2] = late stage modification step, acetate salt
[3] = late stage modification step, TFA salt
[4] = late stage modification step, on protected cyclic peptide, TFA salt

| Substance | step yield ([1]; purification step, TFA salt) | isolated yield ([1]; TFA salt) | also measured |
| --- | --- | --- | --- |
| Boc-D-Val-NMeArg (Tos)-Gly-Asp(OcHex)-MAMB-Ox |  |  | step yield ([1]; coupling step, TFA salt): 86% |
| cyclo-(D-Val-D-NMeArg-Gly-Asp-Mamb) | 14.8% recovery | overall yield 5.3% |  |
| Cyclo-(D-Abu-NMeArg-Gly-Asp-Mamb([^99m TcO(MABA)]^- -5-Aca)) |  | overall yield 13.8% | step yield [1, 2]: 83% |
| Cyclo-([[^99m TcO(mapt)]^- -D-Lys]-NMeArg-Gly-Asp-Mamb) | 14.7% recovery | overall yield 7.9% | step yield [1, 2]: 97% |
| cyclo-(Abu-NMeArg-Gly-Asp-Mamb) |  | overall yield 0.574% |  |
| Bolton-Hunter conjugate of cyclo[D-Lys-N-MeArg-Gly-Asp-MAMB] |  |  | step yield [1, 3]: 60% |
| Cyclo-(D-Lys(Tfa)-N-MeArg-Gly-Asp-Mamb) |  |  | step yield [1, 3]: 100% |
| Cyclo-(D-Val-NMeArg-Gly-Asp-Mamb([^99m TcO(MA-MAMA)]-5-Aca)) | 57% recovery | overall yield 58.1% | step yield [1, 2]: 86% |
| cyclo-(D-Val-NMeArg-Gly-Asp-Mamb) |  |  | step yield [1, 3]: 70%; step yield [1, 2]: 82% |
| cyclo-(D-Nle-NMeArg-Gly-Asp-Mamb) | 44% recovery | overall yield 22.9% |  |
| cyclo-(D-Val-NMeArg-Gly-Asp-3-aminomethyl-6-methoxybenzoic acid) |  |  | step yield [1, 4]: 63% |
| Cyclo-(D-Val-NMeArg-Gly-Asp-Mamb([^99m TcO(MABA)]^- -5-Aca)) | 36% recovery | overall yield 19.9% |  |
| Cyclo-([[^99m TcO(MA-MAMA)]-D-Lys]-NMeArg-Gly-Asp-Mamb) | 15.5% recovery | overall yield 10.5% |  |
| cyclo-(D-Val-NMeArg-Gly-Asp-3-aminomethyl-6-iodobenzoic Acid) |  |  | step yield (peptide synthesis; coupling step): 61%; cyclisation yield (peptide synthesis; cyclisation step): 38% |
| cyclo-(D-Val-NMeArg-Gly-Asp-3-aminomethyl-6-chlorobenzoic acid) |  |  | step yield [1, 4]: 54% |
| Cyclo-(D-Lys-NMeArg-Gly-Asp-Mamb)-N-[4-(carboxy)benzyl]-N,N'-bis[(2-triphenylmethylthio)ethyl]glycinamide Conjugate |  |  | conjugation yield ([1]; TFA salt): 60% |
| TFA.D-Val-NMeArg(Tos)-Gly-Asp(OcHex)-MAMB-Ox |  |  | step yield [1, 3]: 98% |
| HCl.D-Lys(Tfa)-N-MeArg(Tos)-Gly-Asp(OBzl)-Mamb |  |  | step yield [1, 3]: 98% |
| cyclo-(D-Phg-NMeArg-Gly-Asp-Mamb) | 24.2% recovery | overall yield 11.9% |  |
| Cyclo-(D-Lys(Tfa)-N-MeArg(Tos)-Gly-Asp(OBzl)-Mamb) |  |  | cyclisation yield ([1]; cyclisation step, TFA salt): 57% |
| ^111 In-DTPA-[Cyclo-(D-Lys-NMeArg-Gly-Asp-Mamb)]2 | 13.2% recovery | overall yield 7.4% | step yield ([1]; late stage modification step, fluoride salt): 92.3% yield |
| Boc-D-Lys(Tfa)-N-MeArg(Tos)-Gly-Asp(OBzl)-Mamb |  |  | step yield ([1]; coupling step, TFA salt): 78% |
| Cyclo-(D-Val-NMeArg-Gly-Asp-Mamb(5-Aca)) |  | overall yield 13.5% |  |
| cyclo-(D-Phe-NMeArg-Gly-Asp-Mamb) | 35% recovery | overall yield 8.7% |  |
| Cyclo-([[^99m TcO(MAG3)]^- -D-Lys]-NMeArg-Gly-Asp-Mamb) | 6.4% recovery | overall yield 3.3% |  |
| cyclo-(D-Leu-NMeArg-Gly-Asp-Mamb) | 29% recovery | overall yield 16.5% | step yield [1, 3]: 63% |
| Cyclo-(D-Abu-NMeArg-Gly-Asp-Mamb([^99m TcO(MeMAG2 gaba)]^- -5-Aca)) | 5.8% recovery | overall yield 2.1% | step yield [1, 2]: 79% |
| Cyclo-(D-Val-NMeArg-Gly-Asp-Mamb(5-Aca))-N-[4-(carboxy)benzyl]-N,N'-bis[(2- triphenylmethylthio)ethyl]-glycinamide Conjugate |  |  | conjugation yield ([1]; TFA salt): 53% |
| Cyclo-(D-Lys(5-Aca)-NMeArg-Gly-Asp-Mamb) |  |  | step yield [1, 3]: 70% |
